Measured values taken from PMC11475995.
No constants are given. Whether binding was seen depends on the method and setting. In cells and extracts the contact can be indirect. These calls come from enrichment with a bait or labelling near it, and not all partners need be listed. A no says only that the protein was not detected with the bait.

Chains of the proteins cited; added tags and fusions are not shown.
UniProt Q9BS16: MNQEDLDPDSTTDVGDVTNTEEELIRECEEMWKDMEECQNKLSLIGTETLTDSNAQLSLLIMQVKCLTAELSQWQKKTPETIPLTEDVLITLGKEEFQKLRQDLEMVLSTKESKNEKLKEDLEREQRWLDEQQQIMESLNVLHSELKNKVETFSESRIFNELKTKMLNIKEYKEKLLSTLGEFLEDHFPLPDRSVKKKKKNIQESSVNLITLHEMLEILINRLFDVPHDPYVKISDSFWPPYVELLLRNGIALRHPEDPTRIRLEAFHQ
UniProt P21333: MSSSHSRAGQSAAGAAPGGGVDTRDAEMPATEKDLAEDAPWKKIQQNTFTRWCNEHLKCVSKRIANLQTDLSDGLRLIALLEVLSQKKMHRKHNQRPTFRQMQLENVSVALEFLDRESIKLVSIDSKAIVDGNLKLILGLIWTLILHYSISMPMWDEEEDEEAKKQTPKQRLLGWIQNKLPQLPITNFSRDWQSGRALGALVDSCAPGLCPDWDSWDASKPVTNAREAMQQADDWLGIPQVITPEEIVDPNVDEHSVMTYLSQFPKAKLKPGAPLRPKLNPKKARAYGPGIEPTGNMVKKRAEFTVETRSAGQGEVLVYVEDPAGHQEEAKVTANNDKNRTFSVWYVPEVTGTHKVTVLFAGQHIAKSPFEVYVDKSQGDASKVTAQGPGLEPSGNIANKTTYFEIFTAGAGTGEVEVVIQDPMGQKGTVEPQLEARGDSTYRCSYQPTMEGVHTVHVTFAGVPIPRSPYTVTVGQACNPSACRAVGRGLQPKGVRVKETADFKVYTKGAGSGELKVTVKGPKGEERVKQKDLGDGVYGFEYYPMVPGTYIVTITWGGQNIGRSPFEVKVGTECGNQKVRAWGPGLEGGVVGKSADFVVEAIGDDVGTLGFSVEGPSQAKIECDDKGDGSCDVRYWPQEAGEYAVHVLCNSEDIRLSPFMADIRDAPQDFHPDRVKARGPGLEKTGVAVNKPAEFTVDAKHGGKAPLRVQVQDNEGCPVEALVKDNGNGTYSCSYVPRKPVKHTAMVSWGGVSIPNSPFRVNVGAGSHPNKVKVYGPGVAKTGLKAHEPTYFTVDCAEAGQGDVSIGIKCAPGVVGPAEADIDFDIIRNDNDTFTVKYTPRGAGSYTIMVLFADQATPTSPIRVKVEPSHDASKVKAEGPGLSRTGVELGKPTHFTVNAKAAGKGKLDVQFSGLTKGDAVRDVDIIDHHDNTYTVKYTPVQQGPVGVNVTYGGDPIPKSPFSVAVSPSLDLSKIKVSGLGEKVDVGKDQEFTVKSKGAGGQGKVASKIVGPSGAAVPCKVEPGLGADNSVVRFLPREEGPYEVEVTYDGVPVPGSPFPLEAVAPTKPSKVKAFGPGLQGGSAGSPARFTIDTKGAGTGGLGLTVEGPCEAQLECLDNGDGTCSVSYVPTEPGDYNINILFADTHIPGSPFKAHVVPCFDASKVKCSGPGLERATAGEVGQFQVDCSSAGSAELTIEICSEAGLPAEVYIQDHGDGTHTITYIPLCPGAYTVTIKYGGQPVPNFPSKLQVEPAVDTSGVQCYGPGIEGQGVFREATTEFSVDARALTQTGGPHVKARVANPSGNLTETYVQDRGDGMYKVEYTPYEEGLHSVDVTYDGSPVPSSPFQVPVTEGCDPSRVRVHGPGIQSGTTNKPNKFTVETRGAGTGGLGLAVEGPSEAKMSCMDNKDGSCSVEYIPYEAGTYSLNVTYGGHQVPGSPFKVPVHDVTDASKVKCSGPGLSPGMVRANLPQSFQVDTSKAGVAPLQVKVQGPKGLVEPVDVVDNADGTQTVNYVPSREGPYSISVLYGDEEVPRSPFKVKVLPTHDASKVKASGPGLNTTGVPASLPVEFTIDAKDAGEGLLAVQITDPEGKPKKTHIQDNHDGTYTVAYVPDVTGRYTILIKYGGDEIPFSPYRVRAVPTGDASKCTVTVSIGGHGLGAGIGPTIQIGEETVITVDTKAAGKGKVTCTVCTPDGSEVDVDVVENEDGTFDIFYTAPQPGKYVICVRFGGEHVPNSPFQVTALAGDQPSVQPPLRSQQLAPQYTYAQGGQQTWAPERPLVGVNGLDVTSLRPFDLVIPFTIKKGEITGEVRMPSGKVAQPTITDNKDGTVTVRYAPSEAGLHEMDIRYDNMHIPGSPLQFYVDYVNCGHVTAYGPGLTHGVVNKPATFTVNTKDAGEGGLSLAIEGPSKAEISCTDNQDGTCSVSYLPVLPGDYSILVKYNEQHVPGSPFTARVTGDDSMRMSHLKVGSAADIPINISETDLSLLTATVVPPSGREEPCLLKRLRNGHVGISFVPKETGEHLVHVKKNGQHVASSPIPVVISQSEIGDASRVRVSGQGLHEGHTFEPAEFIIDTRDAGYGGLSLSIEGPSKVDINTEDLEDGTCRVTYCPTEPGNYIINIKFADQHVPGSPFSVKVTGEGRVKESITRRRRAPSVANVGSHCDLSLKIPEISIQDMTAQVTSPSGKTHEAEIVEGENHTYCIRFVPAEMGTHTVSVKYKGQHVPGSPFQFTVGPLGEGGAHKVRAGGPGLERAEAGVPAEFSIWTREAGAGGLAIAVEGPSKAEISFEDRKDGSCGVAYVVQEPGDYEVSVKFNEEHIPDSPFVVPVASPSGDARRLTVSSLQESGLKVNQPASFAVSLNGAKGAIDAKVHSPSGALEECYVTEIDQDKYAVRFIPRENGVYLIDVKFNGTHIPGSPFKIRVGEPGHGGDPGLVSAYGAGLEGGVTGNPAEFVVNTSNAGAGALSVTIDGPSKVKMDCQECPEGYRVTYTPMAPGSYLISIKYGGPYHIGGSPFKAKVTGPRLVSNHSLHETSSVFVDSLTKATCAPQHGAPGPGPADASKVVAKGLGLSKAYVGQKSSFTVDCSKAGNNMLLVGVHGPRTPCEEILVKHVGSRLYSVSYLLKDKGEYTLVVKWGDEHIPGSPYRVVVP

Target: wild-type CENPK (full-length CENPK), Flag–GFP–CENPK construct (human) (UniProt Q9BS16)
Experiment: affinity purification with mass spectrometry; IP with tag (Flag) antibody and Protein A/G magnetic beads from lysates of LNCaP cells overexpressing CENPK–delta8 or wild-type CENPK (empty vector as control); cells treated with Abiraterone; IP Lysis buffer pH 7.4, 0.025 M Tris, 0.15 M NaCl, 0.001 M EDTA, 1% NP40, 5% glycerol; 4 °C overnight; silver-stained bands cut for MS

FLNA (from UniProt P21333 1-2647)
binding: no binding

B1: FLOT1 (protein, UniProt O75955 1-427)
chain: MFFTCGPNEAMVVSGFCRSPPVMVAGGRVFVLPCIQQIQRISLNTLTLNVKSEKVYTRHGVPISVTGIAQVKIQGQNKEMLAAACQMFLGKTEAEIAHIALETLEGHQRAIMAHMTVEEIYKDRQKFSEQVFKVASSDLVNMGISVVSYTLKDIHDDQDYLHSLGKARTAQVQKDARIGEAEAKRDAGIREAKAKQEKVSAQYLSEIEMAKAQRDYELKKAAYDIEVNTRRAQADLAYQLQVAKTKQQIEEQRVQVQVVERAQQVAVQEQEIARREKELEARVRKPAEAERYKLERLAEAEKSQLIMQAEAEAASVRMRGEAEAFAIGARARAEAEQMAKKAEAFQLYQEAAQLDMLLEKLPQVAEEISGPLTSANKITLVSSGSGTMGAAKVTGEVLDILTRLPESVERLTGVSISQVNHKPLRTA
binding: no binding
